Reference: publication PMC11724075, “Small-molecule-induced ERBB4 activation to treat heart failure” (Nature Communications, 2025)

By UniProt entry, the sequences of proteins in these tests, tags left out. Residues count along the entry.
UniProt Q15303, 26-1308 limits assumed: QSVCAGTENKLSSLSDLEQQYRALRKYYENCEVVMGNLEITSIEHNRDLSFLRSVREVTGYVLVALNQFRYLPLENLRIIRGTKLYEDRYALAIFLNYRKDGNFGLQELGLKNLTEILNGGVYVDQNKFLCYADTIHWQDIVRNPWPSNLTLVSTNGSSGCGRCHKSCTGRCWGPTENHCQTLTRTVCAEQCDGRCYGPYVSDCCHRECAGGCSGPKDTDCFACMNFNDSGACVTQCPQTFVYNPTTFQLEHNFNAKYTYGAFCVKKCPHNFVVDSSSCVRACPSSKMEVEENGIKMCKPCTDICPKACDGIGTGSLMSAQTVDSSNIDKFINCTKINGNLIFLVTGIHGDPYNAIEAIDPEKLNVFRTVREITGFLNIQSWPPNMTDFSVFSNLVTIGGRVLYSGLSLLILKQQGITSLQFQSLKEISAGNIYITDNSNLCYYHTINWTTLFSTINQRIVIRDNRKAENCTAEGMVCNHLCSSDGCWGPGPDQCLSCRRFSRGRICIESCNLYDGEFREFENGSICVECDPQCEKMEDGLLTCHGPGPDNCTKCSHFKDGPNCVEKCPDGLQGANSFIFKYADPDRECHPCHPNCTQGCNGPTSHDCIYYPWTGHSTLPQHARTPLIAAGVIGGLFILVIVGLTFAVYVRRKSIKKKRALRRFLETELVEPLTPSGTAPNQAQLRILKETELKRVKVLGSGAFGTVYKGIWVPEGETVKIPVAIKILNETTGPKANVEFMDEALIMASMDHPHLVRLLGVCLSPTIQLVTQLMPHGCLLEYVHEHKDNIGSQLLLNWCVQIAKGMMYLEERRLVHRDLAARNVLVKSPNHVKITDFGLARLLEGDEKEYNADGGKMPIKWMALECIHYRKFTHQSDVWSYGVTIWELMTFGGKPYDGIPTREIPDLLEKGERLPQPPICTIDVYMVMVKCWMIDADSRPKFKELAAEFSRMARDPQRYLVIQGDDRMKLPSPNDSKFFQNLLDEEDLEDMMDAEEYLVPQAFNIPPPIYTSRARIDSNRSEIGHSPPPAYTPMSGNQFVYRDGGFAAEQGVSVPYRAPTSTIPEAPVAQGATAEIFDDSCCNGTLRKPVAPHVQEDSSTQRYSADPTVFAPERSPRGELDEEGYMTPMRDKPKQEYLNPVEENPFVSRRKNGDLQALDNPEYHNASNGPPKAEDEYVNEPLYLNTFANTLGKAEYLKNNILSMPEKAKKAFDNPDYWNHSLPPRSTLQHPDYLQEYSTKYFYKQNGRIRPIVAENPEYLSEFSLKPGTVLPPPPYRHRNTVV

Tests used:
mouse model of MI [1] = test: Mouse model of MI, histology: CSA, capillaries, interstitial fibrosis, scar size; conditions: MI experiment, MI/EF-1
Method: (§1) Twelve-week-old female and male Balb/cJ (Charles River, 000651) mice were randomized into either the ctrl or MI group. Mice in the MI group underwent surgical ligation of the LAD, while mice in the ctrl group underwent a sham procedure (n = 8 female mice, n = 10 male mice). Briefly, all mice received an injection of 0.1 mg/kg buprenorphine (Produlab Pharma) before induction of anesthesia with 8% sevoflurane (Zoetis). Anesthesia was maintained with 4.5% sevoflurane and mice were intubated and ventilated. An incision of 15 mm was made on the left side of the thorax and the thoracic cavity was opened at the third intercostal space using blunt forceps. The LAD was permanently ligated with a 8/0 polypropylene monofilament sutures (Ethicon, F1894) after which the thoracic cavity and skin were closed with 6/0 polypropylene monofilament sutures (Ethicon, F1841). and 5/0 polyamide 6 sutures (Ethilon, F2412H), respectively. Mice received another dose of 0.1 mg/kg buprenorphine 6–8 h after the initial dose. Two days after surgery, cardiac ultrasound was performed to exclude mice without successful MI (i.e. displaying hypokinesia in ≥2 out of 5 segments). Mice with successful MI were randomized into 2 groups: an MI/EF-1 group (n = 9 female mice, n = 10 male mice) and an MI/Veh group (n = 8 female mice, n = 12 male mice). Seven days after MI surgery, the mice were equipped with osmotic mini-pumps containing either EF-1 (2 mg/kg/day) or Veh, as described above. Cardiac ultrasound was performed weekly. After 4 weeks of treatment, mice were euthanized, and hearts were collected.
Hearts were fixed in 4% PFA, paraffin-embedded, and cut into 5-µm sections. Images were acquired with an Olympus BX43 microscope (Olympus Stream Motion Software) or a CELENA® S Digital Imaging System and analyzed with ImageJ 2.14.0 software. Collagen distribution was visualized by Masson’s trichrome staining. Cardiac total fibrosis was expressed as the ratio of positively stained fibrotic area (blue) to the total area and perivascular fibrosis as the ratio of fibrotic area to vascular lumen area. Scar size was determined by measuring the scar length over the […]. Hypertrophy and vascularisation were visualized via an isolectin-B4/WGA/DAPI staining. Quantification was performed by a person blinded to the treatment protocol.

mouse model of MI [2] = test: Mouse model of MI (LAD ligation), echocardiography; design: left-ventricular end-diastolic volume / left-ventricular end-systolic volume: unit not given here
Method: as §1
Echocardiography was performed using the Vevo F2-LAZRX (FUJIFILM VisualSonics) and UHF57x probe. Mice were anesthetized with 1.5% isoflurane (Alvira, BE-V512222). Parasternal long-axis B-mode images and M-mode images were obtained and analyzed using VevoLAB software (FUJIFILM VisualSonics, Version 5.7.1). For the AngII experiments, measurements were obtained through analysis of the short-axis M-mode. For the MI experiments, measurements were obtained through analysis of the parasternal long-axis B-mode, of which the area and end-volume of the left ventricular cavity in diastole and systole were determined by tracing the endocardial border. Acquisitions, measurements and analyses were performed blinded.
Supplementary Table 2. Echocardiographic parameters. […]
Echocardiographic parameters obtained through left ventricular trace analysis of the parasternal long-axis obtained in B-mode in female wild-type mice that underwent a sham or MI operation: mice with […]
the MI were treated with Veh or EF-1 (n=8 female mice in Ctrl and MI/Veh group and n=9 female mice […]
in MI/EF-1 group). (g) Echocardiographic parameters obtained through left ventricular trace analysis of the parasternal long-axis obtained in B-mode in male wild-type mice that underwent a sham or MI […]
operation: mice with the MI were treated with Veh or EF-1 (n=5 male mice in Ctrl and MI/EF-1 group […]
and n=6 male mice in MI/Veh group for T0 and T3; n=10 male mice in Ctrl and MI/EF-1 group and n=12 […]
male mice in MI/Veh group for T2 and T4). Echocardiographic parameters were measured weekly (indicated by ‘T’). All data are presented as mean (value of individual mice) ± SD, two-tailed unpaired […]
1 groups. Source data are provided as a Source Data file. AngII, angiotensin II; ANOVA, analysis of variance; Ctrl, control; DOX, doxorubicin; EF, ejection fraction; ERBB4, erythroblastic leukemia viral oncogene homolog 4; FS, fractional shortening; IVSd, interventricular septum thickness in diastole; IVSs, interventricular septum thickness in systole; LVIDd, left ventricular internal diameter in diastole; LVIDs, left ventricular internal diameter in systole; LVPWd, left ventricular posterior wall thickness in diastole; LVPWs, left ventricular posterior wall thickness in systole; MI, myocardial infarction; NA, non-activating pharmacophore-containing compound; SD, standard variation; Veh, vehicle.

ERBB4/ERBB4 = ERBB4/ERBB4 (Homo sapiens, UniProt Q15303); test: NRG1 dose-response in ERBB4/ERBB4 dimerization assay with co-administration of EF-1
[3] = female mice, MI/EF-1, 0 weeks after MI
[4] = female mice, MI/EF-1, 2 weeks after MI
[5] = female mice, MI/EF-1, 3 weeks after MI
[6] = female mice, MI/EF-1, 4 weeks after MI

**Q.** Which results are given for `O=C(NC1CC1)C(Sc1nc2ccccc2c(=O)n1C1CCCC1)c1ccccc1` (stereo not shown) [EF-1]?
**A.** scar size (mouse model of MI [1]; female mice): 0.5651, 0.1876, 0.5268, 0.5015, 0.4073, 0.1392, 0.2913; capillary density (#cap./100 CMs) (mouse model of MI [1]; male mice): 197.943 #cap./100 CMs, 186.963 #cap./100 CMs, 191.856 #cap./100 CMs, 207.355 #cap./100 CMs, 187.043 #cap./100 CMs, 194.913 #cap./100 CMs, 170.533 #cap./100 CMs, 203.32 #cap./100 CMs, 201.604 #cap./100 CMs; capillary density (#cap./area) (mouse model of MI [1]; male mice): 4.5427, 3.8306, 4.232, 4.202, 3.113, 3.634, 3.389, 4.326, 3.992, 4.588 #cap./area; scar size (mouse model of MI [1]; male mice): 0.4695, 0.6871, 0.5279, 0.6132, 0.3511, 0.7867, 0.4775, 0.5059; ejection fraction (mouse model of MI [2]; [3]): 33.0877, 50.5573, 54.0984, 31.1777, 37.2522, 48.5332, 47.3543, 44.4856, 37.896; left-ventricular end-diastolic volume (mouse model of MI [2]; [3]): 58.8001, 54.9123, 55.7638, 60.8114, 66.2701, 52.1758, 60.1413, 47.5633, 54.1349; ejection fraction (mouse model of MI [2]; [4]): 45.1557, 43.4466, 25.4376, 22.6843, 35.9648, 36.135, 6.615, 23.3879, 7.577; left-ventricular end-diastolic volume (mouse model of MI [2]; [4]): 64.076, 72.9718, 78.1864, 64.442, 85.7705, 59.9084, 83.8099, 77.9265, 75.4936; left-ventricular end-systolic volume (mouse model of MI [2]; [4]): 35.142, 41.2681, 58.2977, 49.8237, 54.9233, 38.2605, 78.2661, 59.7011, 69.7734; ejection fraction (mouse model of MI [2]; [5]): 33.3567, 47.2434, 28.4489, 39.4528, 50.1808, 15.2547, 14.3049, 30.9326, 30.6095; left-ventricular end-systolic volume (mouse model of MI [2]; [5]): 40.3267, 25.8483, 74.6131, 34.5752, 33.9853, 94.0317, 89.3367, 58.8762, 57.7933; ejection fraction (mouse model of MI [2]; [6]): 52.3808, 37.7496, 24.961, 30.8316, 37.6415, 33.8986, 21.3873, 36.615, 29.73; left-ventricular end-diastolic volume (mouse model of MI [2]; [6]): 64.4166, 73.1454, 83.8732, 57.7855, 48.3682, 88.9757, 96.0389, 68.2596, 99.1762; left-ventricular end-systolic volume (mouse model of MI [2]; [6]): 30.6746, 45.5333, 62.9376, 39.9693, 30.1617, 58.8142, 75.4988, 43.2664, 69.6911; ejection fraction (mouse model of MI [2]; male mice, MI/EF-1, 2 weeks after MI): 32.5616, 21.1246, 8.7356, 36.3357, 37.8712, 27.3585, 37.9267, 7.0431, 12.98, 9.851; ejection fraction (mouse model of MI [2]; male mice, MI/EF-1, 4 weeks after MI): 37.0676, 14.516, 18.3224, 35.5301, 6.862, 23.6561, 37.959, 12.2588, 31.7278, 33.988; Chemiluminescence-based competition assay with NRG1 and EF-1, signal (ERBB4/ERBB4; EF-1 1 µM, NRG1 3e-11 M): 5.692, 4.638, 7.724; Chemiluminescence-based competition assay with NRG1 and EF-1, signal (ERBB4/ERBB4; EF-1 1 µM, NRG1 1e-10 M): 15.2907, 5.393, 13.1212; Chemiluminescence-based competition assay with NRG1 and EF-1, signal (ERBB4/ERBB4; EF-1 1 µM, NRG1 3e-10 M): 15.1436, 6.566, 15.7973; Chemiluminescence-based competition assay with NRG1 and EF-1, signal (ERBB4/ERBB4; EF-1 1 µM, NRG1 1e-9 M): 25.6403, 6.583, 41.6472, 54.5286, 23.2908, 11.3267; Chemiluminescence-based competition assay with NRG1 and EF-1, signal (ERBB4/ERBB4; EF-1 1 µM, NRG1 3e-9 M): 25.0517, 6.668, 43.6805, 44.6281, 28.2121, 13.0951; Chemiluminescence-based competition assay with NRG1 and EF-1, signal (ERBB4/ERBB4; EF-1 1 µM, NRG1 1e-8 M): 66.7686 and 16.7656; Chemiluminescence-based competition assay with NRG1 and EF-1, signal (ERBB4/ERBB4; EF-1 1 µM, NRG1 3e-8 M): 70.7908, 36.1271, 136.734; Chemiluminescence-based competition assay with NRG1 and EF-1, signal (ERBB4/ERBB4; EF-1 1 µM, NRG1 1e-7 M): 71.9189 and 81.4323; Chemiluminescence-based competition assay with NRG1 and EF-1, signal (ERBB4/ERBB4; EF-1 10 µM, NRG1 3e-11 M): 35.72, 23.3366, 72.3411, 72.0383, 38.3484; Chemiluminescence-based competition assay with NRG1 and EF-1, signal (ERBB4/ERBB4; EF-1 10 µM, NRG1 1e-10 M): 40.5514, 28.7737, 77.3197, 74.4709, 49.9159; Chemiluminescence-based competition assay with NRG1 and EF-1, signal (ERBB4/ERBB4; EF-1 10 µM, NRG1 3e-10 M): 47.4675, 32.2491, 71.474, 71.4584, 57.1084; Chemiluminescence-based competition assay with NRG1 and EF-1, signal (ERBB4/ERBB4; EF-1 10 µM, NRG1 1e-9 M): 57.768 and 35.7302; Chemiluminescence-based competition assay with NRG1 and EF-1, signal (ERBB4/ERBB4; EF-1 10 µM, NRG1 3e-9 M): 58.1113, 36.4275, 106.384; Chemiluminescence-based competition assay with NRG1 and EF-1, signal (ERBB4/ERBB4; EF-1 10 µM, NRG1 1e-8 M): 104.954 and 52.8578; Chemiluminescence-based competition assay with NRG1 and EF-1, signal (ERBB4/ERBB4; EF-1 10 µM, NRG1 3e-8 M): 90.9503 and 94.0753; Chemiluminescence-based competition assay with NRG1 and EF-1, signal (ERBB4/ERBB4; EF-1 32 µM, NRG1 1e-10 M): 58.5037, 27.362, 72.5355; Chemiluminescence-based competition assay with NRG1 and EF-1, signal (ERBB4/ERBB4; EF-1 32 µM, NRG1 3e-9 M): 93.7707, 39.3984, 80.8481; Chemiluminescence-based competition assay with NRG1 and EF-1, signal (ERBB4/ERBB4; EF-1 32 µM, NRG1 1e-8 M): 60.3416 and 74.7482

For part of its entries the source gives two or more results. The list is limited to them. An entry can have further records. For some of these results: The values listed for one entry appear to be repeats (runs, samples, wells or individuals). For some of these results: Values that stand side by side appear to be repeats (runs, samples, wells or individuals); a mean can stand among them.
